The campaign covered roughly 330,000 compounds. About 7,700 (2.3%) were called active. The inconclusive results got no clear call from the source; some entries with a clear call stand among them for comparison. Calls come from the whole dose curve; as a rule, active = well fitted inhibition curve with a large enough effect; inconclusive = small, poorly fitted or top-dose-only effect, or effect the other way; inactive = flat fitted curve, though single readings scatter. A potency beside an inconclusive call is a rough fit, not a confirmed value.
Assay: qHTS screen for small molecules that inhibit ELG1-dependent DNA repair in human embryonic kidney (HEK293T) cells expressing luciferase-tagged ELG1; note: nearly all actives have a fitted effect of over 55% in size
Conditions: HEK293T ELG1-luciferase reporter, luminescence, 16 h, DNA damage induced by 5-fluorouridine; series mostly up to 46.1 µM
Procedure, shortened: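 Overnight (16 hr) co-exposure of 2,000 cells/well to 5-fluorouridine and compound at 37 °C preceded detection. Luciferase was quantified via ONE-Glo luminescence; loss of signal denotes inhibition.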
Potency is the fitted concentration of half-maximal effect.

With `COc1ccc(C2CC(=O)c3cnn(-c4nc(C)cc(C)n4)c3C2)cc1OC` (stereo not given) as the molecule, how does the Potency read?
Its Potency is inconclusive: 16.4 µM [inhibitor, single point].

Which Potency does the source give for `CC(C)N1C(=O)S/C(=C/c2ccc(Sc3nc4ccccc4[nH]3)o2)C1=O` here?
Its Potency is inconclusive: 10.3 µM [inhibitor, partial curve, poor fit].

For `O=C(c1cccs1)N1CC=C(c2ccccc2)CC1`, which Potency is on record?
Its Potency is inconclusive: 10.3 µM [activator, partial curve].

Which Potency does the source give for `CN1CCc2c(sc(NC(=O)c3ccc(C(=O)c4ccccc4)cc3)c2C(N)=O)C1` here?
The Potency was “inactive”.

Which Potency does the source give for `CS(=O)(=O)Nc1ccc(C(=O)Nc2ccc(S(=O)(=O)N3CCCC3)cc2)cc1` here?
Its Potency is inconclusive: 29.1 µM [inhibitor, single point].

Which Potency does the source give for `COc1cc(/C=N/NC(=O)CCN2CCN(C(c3ccccc3)c3ccccc3)CC2)ccc1O` here?
The Potency was “inactive”.

Which Potency does the source give for `CCN(CCCNC(=O)CCc1nc(-c2ccc(OC)cc2)no1)c1cccc(C)c1` here?
Its Potency is active: 18.4 µM.

Which Potency does the source give for `CCOC(=O)c1c(C)[nH]c(C2=NNC(=Nc3ccccc3OC)SC2)c1C` here?
The Potency was inconclusive: 29.1 µM [inhibitor, single point].

For `O=c1[nH]nc(Cc2ncc(C(F)(F)F)cc2Cl)c2ccccc12`, which Potency is on record?
The Potency was “inactive”.

For `COc1ccc(/C=C2\SC(=O)N(CC(=O)NCCCn3ccnc3)C2=O)cc1`, which Potency is on record?
The Potency was inconclusive: 18.3 µM [activator, partial curve, poor fit].

With `COC(=O)c1ccccc1S(=O)(=O)NCc1nc2nc(C)cc(C)n2n1` as the molecule, how does the Potency read?
Its Potency is inconclusive: 23.1 µM [activator, partial curve, poor fit].

Which Potency does the source give for `CN1CCc2c(sc(NC(=O)C3COc4ccccc4O3)c2C(N)=O)C1` (stereo not given) here?
The Potency was inconclusive: 20.6 µM [activator, partial curve].

For `Cc1ccc(Nc2nc(N)nc(CSCCO)n2)cc1`, which Potency is on record?
The Potency was inconclusive: 16.4 µM [activator, partial curve].

Which Potency does the source give for `CC(C)(C)/C=N/NC(=O)CNC(=O)c1ccc2c(c1)OCCO2` here?
Its Potency is “inactive”.

With `C=CCC1[C@H](C)[C@H]2[C@@H]3CC[C@@H](C3)[C@H]2CN1S(=O)(=O)c1ccc(C)cc1` (stereo not given in full) as the molecule, how does the Potency read?
Its Potency is “inactive”.

With `CCN(CC(=O)Nc1ccc(Cl)c(S(=O)(=O)N(C)C)c1)CC(=O)NC(C)C` as the molecule, how does the Potency read?
Its Potency is “inactive”.

With `COc1ccc(CNC(=O)c2csc(Cc3ccccc3)n2)cc1` as the molecule, how does the Potency read?
The Potency was inconclusive: 16.4 µM [activator, partial curve].

For `Cc1cc(C)cc(NC(=O)CCn2ccnc2)c1`, which Potency is on record?
The Potency was “inactive”.

Which Potency does the source give for `O=C(O)Cn1c(=O)c(-c2ccccc2)nc2ccccc21` here?
Its Potency is “inactive”.

Which Potency does the source give for `O=C(CC1CCOCC1)Nc1ccc(Cl)c(Cl)c1` here?
Its Potency is inconclusive: 16.4 µM [activator, partial curve, poor fit].

Source: PubChem BioAssay AID504467 (National Center for Advancing Translational Sciences (NCATS), 2011)
